From article PMC11144275 (The Lancet. Infectious diseases, 2019)
Where a name gives a salt, the structure may show the parent alone.

Legend:
EBOV-Makona = type: cell-based, Ebola virus
EBOV-Ituri = type: cell-based, Ebola virus

## CCCCc1oc2ccccc2c1C(=O)c1cc(I)c(OCCN(CC)CC)c(I)c1 [Amiodarone hydrochloride]
EBOV-Makona
  EBOV-Makona Selectivity index: 15
EBOV-Ituri
  EBOV-Ituri Selectivity index: 25
Huh-7 cells
  CC50: 13·89 (1·91) μM
